Experimental data taken from the supplement of paper PMC10849652.
Some of the results follow.

Chains of the proteins cited; added tags and fusions are not shown. Lines headed by an entry give the natural chain unless they say otherwise; changes in a name come on top.
UniProt P40616: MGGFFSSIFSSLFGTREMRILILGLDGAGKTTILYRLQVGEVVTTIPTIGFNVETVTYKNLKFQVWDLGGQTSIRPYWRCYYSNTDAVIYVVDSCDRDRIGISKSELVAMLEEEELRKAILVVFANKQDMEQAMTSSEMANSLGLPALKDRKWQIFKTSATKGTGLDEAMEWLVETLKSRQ
UniProt Q9Y689: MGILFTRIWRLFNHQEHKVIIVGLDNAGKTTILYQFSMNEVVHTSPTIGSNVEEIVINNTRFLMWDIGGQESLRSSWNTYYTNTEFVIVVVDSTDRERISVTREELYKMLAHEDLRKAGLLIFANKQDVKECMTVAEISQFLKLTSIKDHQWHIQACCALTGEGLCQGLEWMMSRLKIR
UniProt Q9UII2: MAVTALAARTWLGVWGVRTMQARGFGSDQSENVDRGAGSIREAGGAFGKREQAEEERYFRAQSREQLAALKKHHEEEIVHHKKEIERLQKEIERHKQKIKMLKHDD
UniProt P08243: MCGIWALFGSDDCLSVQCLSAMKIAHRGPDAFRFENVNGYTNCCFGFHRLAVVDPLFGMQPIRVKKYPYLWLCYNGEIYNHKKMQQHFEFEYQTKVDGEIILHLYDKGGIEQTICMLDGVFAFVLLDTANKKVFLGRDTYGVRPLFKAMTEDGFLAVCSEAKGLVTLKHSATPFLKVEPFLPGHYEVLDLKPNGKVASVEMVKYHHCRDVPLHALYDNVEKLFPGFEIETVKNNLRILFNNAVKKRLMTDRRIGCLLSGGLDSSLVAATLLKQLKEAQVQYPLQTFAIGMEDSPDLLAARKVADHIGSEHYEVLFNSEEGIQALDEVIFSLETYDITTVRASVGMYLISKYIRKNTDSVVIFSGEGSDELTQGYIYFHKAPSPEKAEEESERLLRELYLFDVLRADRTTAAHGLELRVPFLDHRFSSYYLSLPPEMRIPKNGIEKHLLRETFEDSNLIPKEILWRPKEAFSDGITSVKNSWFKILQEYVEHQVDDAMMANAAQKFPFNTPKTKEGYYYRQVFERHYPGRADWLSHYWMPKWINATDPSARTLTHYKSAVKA
UniProt Q93084: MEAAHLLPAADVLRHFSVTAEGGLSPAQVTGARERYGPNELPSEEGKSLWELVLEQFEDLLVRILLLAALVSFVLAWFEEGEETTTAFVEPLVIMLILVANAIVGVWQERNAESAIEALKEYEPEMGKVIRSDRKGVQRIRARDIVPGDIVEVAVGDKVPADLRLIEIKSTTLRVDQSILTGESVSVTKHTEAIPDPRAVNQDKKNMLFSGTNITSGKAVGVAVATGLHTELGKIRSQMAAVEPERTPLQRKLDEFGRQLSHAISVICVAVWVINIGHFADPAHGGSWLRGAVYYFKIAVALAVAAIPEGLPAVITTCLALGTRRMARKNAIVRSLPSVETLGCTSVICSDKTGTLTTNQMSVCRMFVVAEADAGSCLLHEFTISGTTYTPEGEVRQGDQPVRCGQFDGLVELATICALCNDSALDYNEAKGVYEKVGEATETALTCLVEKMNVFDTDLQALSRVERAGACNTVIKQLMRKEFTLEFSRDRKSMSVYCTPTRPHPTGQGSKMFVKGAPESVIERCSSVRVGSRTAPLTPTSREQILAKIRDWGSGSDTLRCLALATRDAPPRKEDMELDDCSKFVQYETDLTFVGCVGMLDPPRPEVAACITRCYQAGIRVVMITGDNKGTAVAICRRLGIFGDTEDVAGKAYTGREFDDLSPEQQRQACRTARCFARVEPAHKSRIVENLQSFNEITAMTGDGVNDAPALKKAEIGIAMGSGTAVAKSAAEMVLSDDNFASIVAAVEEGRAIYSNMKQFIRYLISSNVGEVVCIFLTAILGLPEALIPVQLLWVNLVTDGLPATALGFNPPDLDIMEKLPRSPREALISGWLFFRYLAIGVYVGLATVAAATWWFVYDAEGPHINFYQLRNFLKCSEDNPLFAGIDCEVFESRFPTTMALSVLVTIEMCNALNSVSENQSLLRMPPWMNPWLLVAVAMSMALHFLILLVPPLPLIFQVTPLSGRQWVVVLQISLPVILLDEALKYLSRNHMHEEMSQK
UniProt Q8NBU5: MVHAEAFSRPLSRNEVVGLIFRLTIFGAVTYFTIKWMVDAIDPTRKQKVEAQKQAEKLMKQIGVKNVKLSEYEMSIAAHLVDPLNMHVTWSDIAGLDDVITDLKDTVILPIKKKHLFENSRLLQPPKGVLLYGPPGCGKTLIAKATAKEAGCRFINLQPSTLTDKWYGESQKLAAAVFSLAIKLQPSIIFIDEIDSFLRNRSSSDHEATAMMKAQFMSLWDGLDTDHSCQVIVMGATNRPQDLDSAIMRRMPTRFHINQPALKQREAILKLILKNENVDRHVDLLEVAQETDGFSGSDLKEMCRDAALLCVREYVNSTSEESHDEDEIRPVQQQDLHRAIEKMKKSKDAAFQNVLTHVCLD
UniProt Q8IUR7, whole entry, looked up: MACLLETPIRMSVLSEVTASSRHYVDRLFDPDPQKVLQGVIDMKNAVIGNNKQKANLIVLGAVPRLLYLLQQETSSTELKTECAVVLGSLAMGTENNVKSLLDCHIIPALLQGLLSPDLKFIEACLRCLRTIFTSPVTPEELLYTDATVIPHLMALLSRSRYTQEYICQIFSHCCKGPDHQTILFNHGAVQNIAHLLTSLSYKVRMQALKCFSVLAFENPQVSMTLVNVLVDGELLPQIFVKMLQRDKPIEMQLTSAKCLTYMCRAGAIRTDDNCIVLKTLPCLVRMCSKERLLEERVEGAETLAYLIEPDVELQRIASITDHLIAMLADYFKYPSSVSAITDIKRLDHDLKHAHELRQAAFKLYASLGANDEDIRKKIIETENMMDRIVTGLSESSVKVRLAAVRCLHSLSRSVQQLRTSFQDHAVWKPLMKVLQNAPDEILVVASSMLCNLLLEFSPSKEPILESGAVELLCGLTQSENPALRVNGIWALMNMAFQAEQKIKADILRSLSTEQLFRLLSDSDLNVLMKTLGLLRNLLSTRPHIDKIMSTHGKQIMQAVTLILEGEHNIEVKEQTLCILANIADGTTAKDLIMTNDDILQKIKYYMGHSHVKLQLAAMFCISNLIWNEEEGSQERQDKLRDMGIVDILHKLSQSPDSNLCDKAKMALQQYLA
UniProt Q9NVI7: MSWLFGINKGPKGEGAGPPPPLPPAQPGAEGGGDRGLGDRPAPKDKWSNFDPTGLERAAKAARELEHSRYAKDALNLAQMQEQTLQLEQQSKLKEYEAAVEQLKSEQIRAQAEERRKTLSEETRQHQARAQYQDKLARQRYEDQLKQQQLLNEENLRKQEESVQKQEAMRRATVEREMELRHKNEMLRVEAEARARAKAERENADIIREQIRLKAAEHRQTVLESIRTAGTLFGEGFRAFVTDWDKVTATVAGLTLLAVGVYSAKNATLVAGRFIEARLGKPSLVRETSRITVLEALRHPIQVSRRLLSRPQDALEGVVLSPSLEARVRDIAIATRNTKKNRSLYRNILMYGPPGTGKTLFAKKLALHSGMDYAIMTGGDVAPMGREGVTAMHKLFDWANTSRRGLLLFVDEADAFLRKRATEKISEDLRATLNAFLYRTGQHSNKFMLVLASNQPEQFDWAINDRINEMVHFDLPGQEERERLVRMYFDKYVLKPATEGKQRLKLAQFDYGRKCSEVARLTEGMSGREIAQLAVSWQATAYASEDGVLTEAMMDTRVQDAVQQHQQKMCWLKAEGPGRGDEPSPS
UniProt Q66PJ3: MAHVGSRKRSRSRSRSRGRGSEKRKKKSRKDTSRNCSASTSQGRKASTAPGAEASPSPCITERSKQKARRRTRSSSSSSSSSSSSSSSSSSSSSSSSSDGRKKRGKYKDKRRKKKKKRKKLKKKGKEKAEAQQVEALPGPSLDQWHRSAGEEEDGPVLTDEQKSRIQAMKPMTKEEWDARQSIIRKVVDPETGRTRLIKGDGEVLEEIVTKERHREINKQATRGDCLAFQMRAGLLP
UniProt Q6VMQ6: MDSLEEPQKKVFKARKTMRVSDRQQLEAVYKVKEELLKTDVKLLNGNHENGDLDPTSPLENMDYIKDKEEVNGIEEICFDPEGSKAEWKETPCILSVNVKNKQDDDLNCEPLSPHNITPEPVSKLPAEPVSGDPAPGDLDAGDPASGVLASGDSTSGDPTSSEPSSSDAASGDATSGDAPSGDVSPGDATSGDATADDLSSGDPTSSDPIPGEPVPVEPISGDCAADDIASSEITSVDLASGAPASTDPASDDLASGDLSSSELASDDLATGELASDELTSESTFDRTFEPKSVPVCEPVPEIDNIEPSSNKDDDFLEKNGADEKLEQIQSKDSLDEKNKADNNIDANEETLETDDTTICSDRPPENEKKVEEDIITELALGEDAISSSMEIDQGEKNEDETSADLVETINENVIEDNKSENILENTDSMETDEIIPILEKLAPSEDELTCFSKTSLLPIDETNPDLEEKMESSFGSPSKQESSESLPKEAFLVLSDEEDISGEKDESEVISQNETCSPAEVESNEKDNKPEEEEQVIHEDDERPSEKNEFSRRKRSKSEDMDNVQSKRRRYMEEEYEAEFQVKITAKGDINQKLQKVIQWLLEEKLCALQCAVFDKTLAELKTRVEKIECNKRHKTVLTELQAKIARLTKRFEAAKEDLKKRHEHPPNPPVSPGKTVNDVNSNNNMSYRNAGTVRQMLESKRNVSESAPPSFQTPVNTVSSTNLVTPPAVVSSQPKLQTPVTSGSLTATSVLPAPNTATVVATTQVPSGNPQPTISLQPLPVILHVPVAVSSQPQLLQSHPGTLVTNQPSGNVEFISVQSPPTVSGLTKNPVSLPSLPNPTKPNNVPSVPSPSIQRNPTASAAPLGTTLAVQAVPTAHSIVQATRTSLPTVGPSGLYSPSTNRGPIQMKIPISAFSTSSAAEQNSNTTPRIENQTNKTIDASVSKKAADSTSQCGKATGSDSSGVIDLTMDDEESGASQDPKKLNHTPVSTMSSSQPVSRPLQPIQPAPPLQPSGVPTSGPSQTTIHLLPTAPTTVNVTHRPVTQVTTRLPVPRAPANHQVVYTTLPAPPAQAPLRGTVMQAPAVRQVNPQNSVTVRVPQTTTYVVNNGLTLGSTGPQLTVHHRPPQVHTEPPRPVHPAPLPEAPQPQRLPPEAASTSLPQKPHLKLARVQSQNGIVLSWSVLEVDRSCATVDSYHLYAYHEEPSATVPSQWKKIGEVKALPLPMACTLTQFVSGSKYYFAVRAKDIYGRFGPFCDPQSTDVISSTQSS
UniProt Q9Y2Y0: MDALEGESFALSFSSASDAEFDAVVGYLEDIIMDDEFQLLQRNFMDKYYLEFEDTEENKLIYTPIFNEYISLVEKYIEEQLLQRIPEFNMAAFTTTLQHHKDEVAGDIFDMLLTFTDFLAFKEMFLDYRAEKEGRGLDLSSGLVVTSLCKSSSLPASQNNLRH
UniProt P21283, whole entry, looked up: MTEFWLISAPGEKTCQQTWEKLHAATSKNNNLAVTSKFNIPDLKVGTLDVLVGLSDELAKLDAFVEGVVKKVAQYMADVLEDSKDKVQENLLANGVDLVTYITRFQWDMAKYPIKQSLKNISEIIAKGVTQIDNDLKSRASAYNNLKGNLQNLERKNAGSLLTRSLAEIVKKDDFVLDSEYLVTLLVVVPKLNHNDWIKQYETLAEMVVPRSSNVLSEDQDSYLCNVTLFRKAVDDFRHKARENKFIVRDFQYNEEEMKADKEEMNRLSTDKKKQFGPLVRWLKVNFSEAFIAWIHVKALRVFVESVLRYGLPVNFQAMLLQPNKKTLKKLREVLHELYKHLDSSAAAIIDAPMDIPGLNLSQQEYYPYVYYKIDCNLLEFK

Experiments:
Assay in all cases: log2 fold change, soluble protein after heating vs DMSO (PISA); higher = thermal stabilisation; K562 cells, 10 uM, 30 min; active = over 0.2 and 3.5 SD of the protein, either way, in both replicates (recomputed)
[1] = compound: CC[C@@H]1C(=O)N(C)c2cnc(Nc3ccc(C(=O)NC4CCN(C)CC4)cc3OC)nc2N1C1CCCC1
Outline: (§1)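 Quantification of soluble protein used TMTpro 16plex LC-MS/MS, with channel sums equalised. Samples were the supernatant after 21,000xg for 90 min of pooled aliquots from K562 cells (2×10^6 cells/mL) treated with 10 μM compound for 30 min, heated for 3 min over 48°C-58°C, and extracted in PBS with 0.5% NP-40 at 4°C. Values, from duplicates, describe thermal stability against control samples on a log2 fold-change scale.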

volasertib = compound: CC[C@@H]1C(=O)N(C)c2cnc(Nc3ccc(C(=O)N[C@H]4CC[C@H](N5CCN(CC6CC6)CC5)CC4)cc3OC)nc2N1C(C)C [volasertib]
Outline: as §1

[2] = compound: CC[C@H](C)N1C=C(C2=C(C=C(C=C21)C3=CN=C(C=C3)N4CCNCC4)C(=O)NCC5=C(C=C(NC5=O)C)C)C
Outline: as §1

epoxomicin = compound: CC[C@H](C)[C@@H](C(=O)N[C@@H]([C@@H](C)O)C(=O)N[C@@H](CC(C)C)C(=O)[C@]1(CO1)C)NC(=O)[C@H]([C@@H](C)CC)N(C)C(=O)C [epoxomicin]
Outline: as §1

[3] = compound: CCn1cc(-c2ccnc3[nH]c(-c4cccc(CN(C)C)c4)cc23)c(-c2ccc(NC(=O)N(C)C)cc2)n1
Outline: as §1

[4] = compound: CN(C)CC(=O)Nc1ccc2[nH]c(=O)c3ccccc3c2c1
Outline: as §1

[5] = compound: CN1C2=C(C3=C1C(=O)N(N=C3)CC4=CC(=CC=C4)N)SC(=C2)S(=O)C
Outline: as §1

[6] = compound: CN1CCC(CNc2ccc3ncc(-c4cccc(OC(F)(F)F)c4)n3n2)CC1
Outline: as §1

saracatinib = compound: CN1CCN(CCOc2cc(OC3CCOCC3)c3c(Nc4c(Cl)ccc5c4OCO5)ncnc3c2)CC1 [saracatinib]
Outline: as §1

sotrastaurin = compound: CN1CCN(c2nc(C3=C(c4c[nH]c5ccccc45)C(=O)NC3=O)c3ccccc3n2)CC1 [sotrastaurin]
Outline: as §1

Tubastatin A = compound: CN1CCc2c(c3ccccc3n2Cc2ccc(C(=O)NO)cc2)C1 [Tubastatin A]
Outline: as §1

[7] = compound: CNC(=O)C1=CC=CC=C1NC2=NC(=NC=C2Cl)NC3=C(C=C(C=C3)N4CCOCC4)OC
Outline: as §1

defactinib = compound: CNC(=O)c1ccc(Nc2ncc(C(F)(F)F)c(NCc3nccnc3N(C)S(C)(=O)=O)n2)cc1 [defactinib]
Outline: as §1

rucaparib = compound: CNCc1ccc(-c2[nH]c3cc(F)cc4c3c2CCNC4=O)cc1 [rucaparib]
Outline: as §1

[8] = compound: CNc1nc(-c2ccc3c(N)n[nH]c3c2)cc(N2C[C@@H](C(=O)NC3CCCCC3)CC[C@H]2C)n1
Outline: as §1

encorafenib = compound: COC(=O)N[C@@H](C)CNc1nccc(-c2cn(C(C)C)nc2-c2cc(Cl)cc(NS(C)(=O)=O)c2F)n1 [encorafenib]
Outline: as §1

[9] = compound: COC(=O)[C@H](CCSC)NC(=O)C1=C(C=C(C=C1)NC[C@H](CS)N)C2=CC=CC=C2
Outline: as §1

[10] = compound: CCn1c(C(=O)N(C2CC2)C2CC2)cc2c3c(ncn3C)c(Nc3cc(C)n(C)n3)nc21
Outline: as §1

rosiglitazone = compound: CN(CCOC1=CC=C(C=C1)C[C@H]2C(=O)NC(=O)S2)C3=CC=CC=N3 (racemic) [rosiglitazone]
Outline: as §1

alvocidib = compound: CN1CC[C@H](c2c(O)cc(O)c3c(=O)cc(-c4ccccc4Cl)oc23)[C@H](O)C1 [alvocidib]
Outline: as §1

Row | Target | log2 fold change [1] | log2 fold change (volasertib) | log2 fold change [2] | log2 fold change (epoxomicin) | log2 fold change [3] | log2 fold change [4] | log2 fold change [5] | log2 fold change [6] | log2 fold change (saracatinib) | log2 fold change (sotrastaurin) | log2 fold change (Tubastatin A) | log2 fold change [7] | log2 fold change (defactinib) | log2 fold change (rucaparib) | log2 fold change [8] | log2 fold change (encorafenib) | log2 fold change [9] | log2 fold change [10] | log2 fold change (rosiglitazone) | log2 fold change (alvocidib)
1 | ARL1 (UniProt P40616) | inactive: 0.072 | inactive: -0.113 | inactive: 0.023 | inactive: 0.028 | inactive: -0.05 | inactive: 0.025 | inactive: -0.157 | inactive: 0.059 | inactive: 0.117 | inactive: -0.049 | inactive: 0.031 | inactive: -0.017 | inactive: 0.03 | inactive: -0.012 | inactive: 0.058 | inactive: 0.117 | inactive: -0.178 |  |  | 
2 | ARL5A (UniProt Q9Y689) | inactive: 0.116 | inactive: -0.144 | inactive: 0.046 | inactive: 0.179 | inactive: 0.115 |  | inactive: -0.013 | inactive: -0.123 | inactive: 0.163 | inactive: 0.042 | inactive: -0.015 | inactive: -0.006 |  | inactive: -0.071 | inactive: 0.075 | inactive: 0.127 |  | inactive: 0.051 | inactive: -0.013 | inactive: 0.009
3 | ATP5IF1 (UniProt Q9UII2) | inactive: -0.149 | inactive: 0.141 | inactive: -0.078 | inactive: -0.041 | inactive: 0.013 | inactive: -0.13 | inactive: -0.04 | inactive: 0.037 | inactive: -0.111 | inactive: 0.111 | inactive: -0.039 | inactive: -0.014 | inactive: 0.046 | inactive: -0.011 | inactive: 0.011 | inactive: -0.063 | active: -0.244 |  |  | 
4 | ASNS (UniProt P08243) | inactive: -0.01 | inactive: 0.015 | inactive: 0.008 | inactive: 0.021 | inactive: -0.051 | inactive: -0.008 | inactive: -0.064 | inactive: -0.037 | inactive: 0.041 | inactive: 0.016 | inactive: -0.002 | inactive: -0.036 | inactive: -0.018 | inactive: -0.017 | inactive: -0.015 | inactive: -0.009 | inactive: -0.001 |  |  | 
5 | ATP2A3 isoform 2 (UniProt Q93084) | inactive: -0.142 | inactive: -0.208 | inactive: 0.046 | inactive: 0.06 | inactive: -0.047 | inactive: -0.028 | inactive: -0.016 | inactive: 0.028 | inactive: 0.058 | inactive: -0.007 | inactive: -0.022 | inactive: -0.026 | inactive: -0.021 | inactive: -0.04 | inactive: 0.033 | inactive: 0.027 | inactive: 0.002 |  |  | 
6 | ATAD1 (UniProt Q8NBU5) | inactive: -0.008 | inactive: -0.127 | inactive: 0.056 | inactive: 0.065 | inactive: -0.027 | inactive: 0.064 | inactive: -0.033 | inactive: -0.046 | inactive: -0.044 | inactive: 0.029 | inactive: 0.008 | inactive: -0.032 | inactive: -0.029 | inactive: 0.018 | inactive: 0.136 | inactive: 0.017 | inactive: -0.042 |  |  | 
7 | ARMC8 (UniProt Q8IUR7) | inactive: -0.055 | inactive: -0.14 | inactive: 0.053 | inactive: -0.008 | inactive: 0.003 | inactive: -0.007 | inactive: 0.053 | inactive: 0.043 | inactive: -0.05 | inactive: -0.07 | inactive: 0.009 | inactive: 0.016 | inactive: -0.005 | inactive: 0.017 | inactive: 0.228 | inactive: 0.026 | inactive: -0.031 |  |  | 
8 | ATAD3A isoform 2 (UniProt Q9NVI7) | inactive: -0.145 | inactive: -0.202 | inactive: 0.038 | inactive: 0.05 | inactive: 0.033 | inactive: 0.018 | inactive: 0.177 | active: -0.319 | inactive: 0.001 | inactive: -0.053 | inactive: 0.04 | inactive: -0.139 | inactive: 0.05 | inactive: 0.252 | inactive: -0.017 | inactive: 0.154 | inactive: -0.046 |  |  | 
9 | ARL6IP4 (UniProt Q66PJ3) | inactive: 0.008 | inactive: -0.009 | inactive: -0.023 | inactive: 0.014 | inactive: -0.025 | inactive: 0.001 | inactive: -0.065 | inactive: 0.01 | inactive: -0.026 | inactive: 0.023 | inactive: -0.024 | inactive: -0.05 | inactive: -0.038 | inactive: 0.01 | inactive: -0.002 | inactive: -0.059 | inactive: 0.016 |  |  | 
10 | ATF7IP isoform 4 (UniProt Q6VMQ6) |  |  | inactive: -0.259 | inactive: 0.137 | inactive: 0.024 | inactive: 0.132 |  | inactive: -0.088 |  |  | inactive: -0.031 | inactive: 0.002 | inactive: -0.106 |  |  |  | inactive: -0.087 | inactive: -0.02 | inactive: 0.017 | inactive: -0.046
11 | ARL2BP (UniProt Q9Y2Y0) | inactive: -0.222 | active: -0.682 | inactive: 0.023 | inactive: -0.008 | inactive: -0.048 | inactive: 0.032 | inactive: -0.062 | inactive: -0.183 | inactive: 0.093 | inactive: -0.047 | inactive: 0.082 | inactive: 0.002 | inactive: -0.153 | inactive: 0.055 | inactive: 0.147 | inactive: -0.12 | inactive: -0.055 |  |  | 
12 | ATP6V1C1 (UniProt P21283) | inactive: 0.027 | inactive: -0.196 | inactive: 0.066 | inactive: 0.064 | active: -0.282 | inactive: -0.008 | inactive: 0.069 | active: 0.377 | inactive: -0.193 | inactive: -0.07 | inactive: 0.059 | inactive: -0.034 | inactive: -0.011 | inactive: 0.137 | inactive: 0.004 | inactive: 0.083 | inactive: -0.013 |  |  | 

Two entries from above, set out differently.
Row	Target	log2 fold change [1]	log2 fold change (volasertib)	log2 fold change [2]	log2 fold change (epoxomicin)	log2 fold change [3]	log2 fold change [4]	log2 fold change [5]	log2 fold change [6]	log2 fold change (saracatinib)	log2 fold change (sotrastaurin)	log2 fold change (Tubastatin A)	log2 fold change [7]	log2 fold change (defactinib)	log2 fold change (rucaparib)	log2 fold change [8]	log2 fold change (encorafenib)	log2 fold change [9]	log2 fold change [10]	log2 fold change (rosiglitazone)	log2 fold change (alvocidib)
8	ATAD3A isoform 2 (UniProt Q9NVI7)	inactive: -0.145	inactive: -0.202	inactive: 0.038	inactive: 0.05	inactive: 0.033	inactive: 0.018	inactive: 0.177	active: -0.319	inactive: 0.001	inactive: -0.053	inactive: 0.04	inactive: -0.139	inactive: 0.05	inactive: 0.252	inactive: -0.017	inactive: 0.154	inactive: -0.046			
12	ATP6V1C1 (UniProt P21283)	inactive: 0.027	inactive: -0.196	inactive: 0.066	inactive: 0.064	active: -0.282	inactive: -0.008	inactive: 0.069	active: 0.377	inactive: -0.193	inactive: -0.07	inactive: 0.059	inactive: -0.034	inactive: -0.011	inactive: 0.137	inactive: 0.004	inactive: 0.083	inactive: -0.013			
